These are literature values, as cited in patent US11452751B2, “Medication dispensing system” (priority 2015, dated 2022).

Structures are written as SMILES.

For this data set the following is noted: natural derived CBD.

For the compound `C=C(C)[C@@H]1CCC(C)=C[C@H]1c1c(O)cc(CCCCC)cc1O` [CBD, Cannabidiol], the solubility in water result is on record as “not readily soluble in water”.
